The exact form of at least one protein or probe is not confirmed. Where cells or extracts were used, other partners may take part.
Target: FLAG-TCF4 (UniProt Q9NQB0)
Experiment: EMSA supershift
Conditions: anti-FLAG, LightShift chemiluminescent EMSA kit binding buffer (composition and pH not given), 4 ug HEK293T nuclear extract, 30 min at room temperature, then 30 min with anti-FLAG, protein in an extract, protein details: FLAG

Protein sequences, listed by entry. Tags and fused reporters are not part of them. Lines headed by an entry give the natural chain unless they say otherwise; changes in a name come on top.
UniProt Q9NQB0: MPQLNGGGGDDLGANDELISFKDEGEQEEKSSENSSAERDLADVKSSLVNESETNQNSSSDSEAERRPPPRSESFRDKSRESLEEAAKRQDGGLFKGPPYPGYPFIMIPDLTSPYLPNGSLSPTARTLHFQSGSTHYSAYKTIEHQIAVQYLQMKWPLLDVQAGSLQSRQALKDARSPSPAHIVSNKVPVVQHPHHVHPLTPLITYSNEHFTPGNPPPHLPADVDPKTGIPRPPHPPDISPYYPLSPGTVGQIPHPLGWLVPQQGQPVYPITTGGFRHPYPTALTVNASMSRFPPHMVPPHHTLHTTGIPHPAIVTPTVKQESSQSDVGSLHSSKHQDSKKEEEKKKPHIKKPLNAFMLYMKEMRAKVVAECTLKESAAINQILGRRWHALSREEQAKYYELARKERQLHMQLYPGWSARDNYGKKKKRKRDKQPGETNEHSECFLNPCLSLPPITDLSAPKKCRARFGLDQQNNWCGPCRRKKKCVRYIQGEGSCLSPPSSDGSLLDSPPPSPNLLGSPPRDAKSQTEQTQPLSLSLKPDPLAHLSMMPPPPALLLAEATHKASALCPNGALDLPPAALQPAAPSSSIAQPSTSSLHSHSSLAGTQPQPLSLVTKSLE

AGAGTTATATACTGCTTTGATTTGCT (double strand) [EZH2-WT probe]
binding result (HA-HBP1 delRepression co-expressed (no effect on supershift)): binds
binding result (HEK293T nuclear extract 4 ug): binds

From publication PMC4933444
